## Screening data, single-dose tests

Source: ChEMBL document CHEMBL3988442, “University of Dundee, Small-Polar-MMV Screening Library” (2021).

Mtb glucose medium: 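Growth of Mycobacterium tuberculosis over 3 days (7H9 medium with glucose and tyloxapol); the read-out is not stated. Compounds at 50 µM. Higher reads as more growth inhibition (inferred: compounds with an IC50 in retests scored well above the rest). Size under these conditions: about 69,000 compounds, about 760 of them at 50% or above in at least one test.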
Mtb cholesterol medium: 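Phenotypic screen: M. tuberculosis growth, cholesterol and DPPC medium, 4 days; the read-out is not stated. Compounds at 50 µM. Direction is inferred from retests: higher values go with more growth inhibition. Of about 69,000 compounds tested this way, about 370 (0.54%) reached 50% or more in at least one test.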

The filed quantity is “Percent Effect” (%).
The controls that fix the scale are not given in the record; negative values are as filed.
Compounds were drawn at random from those tested, without regard to their results.
Two or more numbers in one place are separate tests of the same structure; such repeats can differ widely.

| Compound | Mtb glucose medium | Mtb cholesterol medium |
|---|---|---|
| `Cc1cc(NC(=O)CCN2CCCCC2Cn2cncn2)no1` (centres unmarked) | 8.38% | 14.2% |
| `Cn1ccnc1CN1CCCC1CCc1ccccc1` (centres unmarked) | 40.25% | 24.16% |
| `O=C(c1ccccc1F)N1CCN(CCCn2cncn2)CC1` | -6.712% and 9.832% | 8.625% |
| `O=C(O)C(F)(F)F.[H][C@]12CN(Cc3ccc(Cl)cc3)C[C@@]1([H])S(=O)(=O)CC[C@@H]2C(=O)NCC(C)C` | -17.49% | -21.94% and 5.996% |
| `CCN(CCn1cccn1)Cc1nc(-c2ccc(C)o2)oc1C` | -32.51% | -36.31% |
| `COCc1noc(Cn2c(C3CC3)nc3ccccc32)n1` | -17.82% | -14.56% |
| `CS(=O)(=O)NCc1nnc2n1CCN(Cc1cccs1)CC2.O=C(O)C(F)(F)F` | -25.68% | -21.12% and 2.508% |
| `N#Cc1ccc(N2CCC3(CC2)CC(Oc2cccnc2)CO3)cc1.O=C(O)C(F)(F)F` (centres unmarked) | 11.49% and 19.98% | 10.46% |
| `[H][C@@]12C[C@@H](Oc3cccnc3)CN1CCN(C(=O)c1ccoc1C)C2` | 1.676% | -3.189% |
| `CCN(CC)C(=O)Nc1cccc(Oc2ccccn2)c1` | -5.622% | -17.18% and -10.87% |
| `CN1C(=O)C(C)(C)COc2cc(NS(=O)(=O)Cc3ccccc3)ccc21` | -12.65% and 1.26% | -21.66% |
| `O=C1CN(C(=O)C2CN(c3cccc(Cl)c3)CCO2)CCN1` (centres unmarked) | -17.42% | -1.503% and -2.495% |
| `CC(C)NC(=O)C(c1ccccc1)N1CCn2c(nnc2C2CC2)C1` (centres unmarked) | 16.24% | -2.588% |
| `CCOC(=O)c1sc2ccsc2c1CNC(=O)COC` | 11.15% | 10.29% |
| `CC1CCN(S(=O)(=O)c2ccc(C(=O)N3CCSCC3)cc2)CC1` | 0.7988% and 0.6585% | 10.36% |
| `CCN(CCO)Cc1cn(-c2cccc(F)c2)nc1-c1ccc(C)o1` | 47.29% and 19.74% | 36.99% |
| `CC(NC(=O)NCc1cccc(F)c1)(C(=O)O)c1ccco1` (centres unmarked) | 18.22% | 2.512% |
| `Cc1cc(C)n(C2CCN(c3ncnc4c3CCNCC4)C2)n1` (centres unmarked) | 0.5385% and 6.624% | 7.137% |
| `CC(NC(=O)NCc1ccc(Cl)s1)c1ccccn1` (centres unmarked) | 4.745% | -13.67% |
| `O=C(Cc1cccnc1)NC1CCCN(CCCc2ccccc2)C1` (centres unmarked) | 16.7% | 8.854% |
| `Cn1nccc1C(=O)N1CCCC1c1ccc(C(=O)N2CCOCC2)s1` (centres unmarked) | -0.6546% and -21.19% | -2.422% and -1.865% |
| `O=C(c1ccccc1O)N1CCn2c(nnc2C(F)(F)F)C1` | 25.38% and -1.273% | 15.84% |
| `Cc1ccc(-c2nnc(CN3CC(n4cc(C)cn4)C3)o2)cc1` | 19.3% and 46.08% | 18.92% |
| `CN(CC1(CO)CCC1)C(=O)c1cc(COc2ccccc2F)[nH]n1` | -5.688% | -14.62% and -3.709% |
| `CN(CCc1ccccc1)Cc1c(C2CCOCC2)[nH]c2ncccc12` | -16.33% | -8.817% and -12.73% |
| `O=C(NCC1CC(=O)N(CCc2ccccc2)C1)c1ccc[nH]1` (centres unmarked) | -11.89% | -33.03% |
| `CCCN1CCC(c2nc3ccc(C)cn3n2)CC1.O=C(O)C(F)(F)F` | -2.081% | -13% |
| `COCCN1CCc2cc(C(=O)N(C)C)c(NC(C)C)nc2CC1.O=C(O)C(F)(F)F.O=C(O)C(F)(F)F` | 19.48% | 4.413% |
| `O=C(NCc1nn(-c2ccccc2)c2c1CCC2)NC1CCC(O)CC1` (centres unmarked) | 22.83% | 7.172% |
| `Cc1nonc1C(=O)N1CCc2c(ncn2CCc2ccccc2)C1` | 19.32% | 17.49% and 0.8112% |
| `CC(CNC(=O)c1ccc(F)cc1I)N1CCCC1` (centres unmarked) | 1.886% and -3.693% | 16.22% |
| `O=C(NCCCOC1CCOC1)NC(C1CC1)C1CC1` (centres unmarked) | -4.673% | -15.6% |
| `O=C(NCC1CC1)C12CC(CN1Cc1nccs1)C2` | 7.686% and -2.058% | -6.958% |
| `[H][C@@]12CCN(C(=O)c3cscn3)[C@]1([H])CN(C(=O)NC1CC1)C2` | -24.88% | -19.85% |
| `COCc1cc(N2CCN(C3CCCCC3)CC2)n2nccc2n1` | -14.72% | 12.33% |
| `CCC(C(=O)Nc1ccc(-c2nc(C)n[nH]2)cc1)N1CCCC1=O` (centres unmarked) | -2.991% | -14.6% |
| `CCCn1nc2c(cc1=O)CN(CC(=O)Nc1ccncc1)CC2` | -15.89% | 12.23% |
| `Cc1csc(CNC(=O)N2CCN(Cc3ccco3)CC2)n1` | 0.3863% | 4.259% |
| `O=C(Cn1cccn1)N1CCc2[nH]nc(-c3ccc4c(c3)OCO4)c2C1` | -2.265% and -0.1298% | 1.463% and -9.59% |
| `COC(=O)CCCC(=O)N1CCCCC1c1ccc(F)cc1` (centres unmarked) | 7.341% and 12.21% | -12.72% |
| `Cc1ncc2c(c1CNC(=O)C1(C)CCCO1)CCNC2` (centres unmarked) | -15.93% | -3.311% |
| `O=C(O)C(F)(F)F.O=C(O)C(F)(F)F.c1coc(CN2CCCn3c(CN4CCOCC4)nnc3C2)c1` | 7.115% | -9.899% |
| `Cc1nc(CC(=O)N2CCC(Nc3cccnn3)CC2)cs1` | 8.991% | 2.987% |
| `O=C(Nc1ccncc1)NC1CCN(c2ccccc2OC(F)F)C1` (centres unmarked) | 32.48% and 15.89% | 15.27% |
| `Cc1nc(CNCC2CN(C)CCO2)cs1` (centres unmarked) | 18.54% | 1.623% |
| `CC(C)N1CCc2onc(Cn3cccc3)c2C1.O=C(O)C(F)(F)F` | 10.43% | -11.8% |
| `CC(Cn1ccnc1)NCc1nncn1C1CCCCC1` (centres unmarked) | -24.86% | -19.14% |
| `COCC(=O)N1CCN(C(=O)NC(C)C)CC2(CC(=O)N(C)C2)C1` (centres unmarked) | 11.44% | -2.283% |
| `COC(=O)N1CCN(Cc2csc(-c3ncccn3)n2)CC1` | -3.193% | -13.8% and -10.02% |
| `COc1cc(C(=O)N(Cc2ccc(F)cc2)C2CC2)cc2c1OCCO2` | -6.42% and 3.112% | -7.174% |
| `CCCc1nc(CN(CC)C(=O)c2ccc3c(c2)nnn3C)no1` | -1.371% | -31.18% |
| `Cc1cc(C(O)CCNS(=O)(=O)c2ccc(Cl)s2)c(C)o1` (centres unmarked) | 10.29% | 3.182% |
| `CN(C(=O)c1cccc(NCc2cccs2)c1)C(C1CC1)C1CC1` | -13.11% and 6.845% | -10.34% |
| `[H][C@@]12CC[C@H](Oc3cccc(F)c3)[C@]1([H])CN(C(=O)c1cccnn1)C2` | 7.394% | -9.963% |
| `CN(C)CC1CN(Cc2coc(-c3ccc(Cl)cc3)n2)CCO1` (centres unmarked) | 3.631% | -18.19% |
| `O=C1CCC2(CCN(Cc3ccsc3)CC2)N1Cc1ccccc1` | -8.763% | -9.023% |
| `Cc1nc(C2CCCN2C(=O)c2csc3c2CCCC3)no1` (centres unmarked) | 0.2029% and -22.08% | 0.7496% |
| `CCc1nc(CN2CCCC(NCc3cnc(C)s3)C2)no1` (centres unmarked) | -26.25% and -4.383% | -3.698% |
| `CC1CCc2n[nH]c(C(=O)NCCc3ccco3)c2C1` (centres unmarked) | 33.41% | 21.08% |
| `COCC1CN(C(=O)c2ccoc2)Cc2cnn(CC3CCOCC3)c21.O=C(O)C(F)(F)F` (centres unmarked) | -14.01% | -1.725% |
| `COCCN1CCOCC12CCN(c1nccs1)CC2.O=C(O)C(F)(F)F` | 13.24% | 8.639% |
| `[H][C@@]12CCC(=O)N(CCc3c[nH]cn3)[C@]1([H])CCN(Cc1ccc(Cl)s1)C2` | 13.8% | 5.858% |
| `CN(C(=O)c1ccccc1F)[C@@H]1CC[C@@H](O)[C@@H]1O` | -2.234% | -12.43% |
| `CCCS(=O)(=O)N1CCC2(CCC(=O)N(CCc3ccncc3)C2)CC1` | -1.017% and 31.7% | 11.73% |
| `CC(C)C(C)NC(=O)c1ncn2c1CN(C)S(=O)(=O)c1ccccc1-2.O=C(O)C(F)(F)F` (centres unmarked) | 12.35% | 19.52% |
| `Cc1nn(-c2ccccc2)c(C)c1CC(=O)NC1CC(=O)N(C)C1` (centres unmarked) | 4.982% and -2.624% | 9.981% |
| `O=C(O)C(F)(F)F.[H][C@@]12OCCN(C(=O)c3ccnnc3)[C@@]1([H])CC[C@H]2OCCN(C)C` | -53.48% | -38.97% |
| `Cc1cc(C)n(C2=NC(NCCC(C)C)c3c(sc4c3CCCC4)N2)n1` (centres unmarked) | 4.242% | -5.266% |
| `Cc1ccc(CN2CCC3(CCCN(Cc4ccc(F)c(F)c4)C3)C2)o1` (centres unmarked) | 51.83% | 24.58% |
| `Cn1nc(Cl)cc1C(=O)N1CCC(C(=O)c2nc3ccccc3s2)CC1` | -7.614% | -8.927% and 1.2% |
| `O=C1CSC(c2ccccc2)c2c(n(C3CCOCC3)[nH]c2=O)N1` (centres unmarked) | 1.186% | -8.31% |
| `[H][C@]12COC[C@H](NS(C)(=O)=O)[C@@]1([H])CN(Cc1ccco1)C2` | -23.35% | -3.192% |
| `COC(=O)c1ccc(C(=O)NCC(O)c2cccn2C)cc1` (centres unmarked) | 9.496% | 10.43% |

Once more, the final 5:

| Compound | Mtb glucose medium | Mtb cholesterol medium |
|---|---|---|
| `Cc1ccc(CN2CCC3(CCCN(Cc4ccc(F)c(F)c4)C3)C2)o1` (centres unmarked) | 51.83% | 24.58% |
| `Cn1nc(Cl)cc1C(=O)N1CCC(C(=O)c2nc3ccccc3s2)CC1` | -7.614% | -8.927% and 1.2% |
| `O=C1CSC(c2ccccc2)c2c(n(C3CCOCC3)[nH]c2=O)N1` (centres unmarked) | 1.186% | -8.31% |
| `[H][C@]12COC[C@H](NS(C)(=O)=O)[C@@]1([H])CN(Cc1ccco1)C2` | -23.35% | -3.192% |
| `COC(=O)c1ccc(C(=O)NCC(O)c2cccn2C)cc1` (centres unmarked) | 9.496% | 10.43% |